PubChem BioAssay AID1259308, NCATS | 2017

Purpose: 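Candidate targets for better recombinant protein yield in mammalian cells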 (primary screen)
Cells: human HEK293 embryonic kidney cells stably expressing firefly luciferase (HEK-CMV-Luc2-Hygro)
Reagent: single siRNA against human genes, 0.8 pmol siRNA per well
Timing: 72 h
Read-out: 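Luciferase light (ONE-Glo) measured on one replicate plate set and viability (CellTiter-Glo) on the other, scaled to a negative control siRNA, with robust z-scores and luciferase per cell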
Scale: total luciferase, z-score and total luciferase, % of control: higher = more reporter protein produced; luciferase per cell, z-score: higher = more reporter output per viable cell; viable cells, % of control: higher = more viable cells
Hit rule: 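An siRNA counts as active if its total luciferase robust z-score exceeds 3; genes with two or more such siRNAs out of three were retested with fresh siRNAs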
Calls: active = raised luciferase; inactive = no rise
Shown is a random part of about 59,000 deposited reagents. Of all reagents, about 1,510 (2.6%) were called active. 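Calls use total luciferase alone and ignore viability, so some active siRNAs may act by altering cell number.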 Reagents against one gene are numbered here. Reagent sequences are not shown.

no.	gene knocked down	reagent no.	total luciferase, z-score	total luciferase, % of control	luciferase per cell, z-score	viable cells, % of control	outcome
1	PRG3	1	-0.891	64.2	-1.14	96.8	inactive
2	PRG3	2	1.01	102	1.63	74.2	inactive
3	PRG3	3	0.12	84.3	-0.276	101	inactive
4	CAMSAP2	1	-0.149	78.9	0.231	83	inactive
5	CAMSAP2	2	-1.79	46.2	-2.34	95.7	inactive
6	CAMSAP2	3	0.0739	83.4	-0.321	101	inactive
7	IL22RA2	1	-0.217	77.6	-0.398	96.2	inactive
8	IL22RA2	2	-2.52	31.8	-1.68	55.3	inactive
9	IL22RA2	3	-0.305	75.8	-0.632	100	inactive
10	RNF24	1	-0.714	67.7	-1.02	98.9	inactive
11	RNF24	2	-0.675	68.5	-1.22	105	inactive
12	RNF24	3	-0.78	66.4	-0.263	79.5	inactive
13	CAMK2B	1	0.91	100	1.52	74.9	inactive
14	CAMK2B	2	0.454	90.9	-0.432	114	inactive
15	CAMK2B	3	0.437	90.6	0.446	90	inactive

2 entries from above, arranged by “viable cells, % of control”, high to low:
gene knocked down	reagent no.	total luciferase, z-score	total luciferase, % of control	luciferase per cell, z-score	viable cells, % of control	outcome
IL22RA2	3	-0.305	75.8	-0.632	100	inactive
RNF24	1	-0.714	67.7	-1.02	98.9	inactive

Continued:
no.	gene knocked down	reagent no.	total luciferase, z-score	total luciferase, % of control	luciferase per cell, z-score	viable cells, % of control	outcome
16	DDX19B	1	0.101	83.9	1.2	68.4	inactive
17	DDX19B	2	-0.45	72.9	-0.597	95.4	inactive
18	DDX19B	3	-1.68	48.5	-0.869	68.1	inactive
19	SCAMP1-AS1	1	0.457	91	0.315	93.6	inactive
20	SCAMP1-AS1	2	-0.14	79.1	0.312	81.4	inactive
21	SCAMP1-AS1	3	-0.913	63.7	-0.663	84.8	inactive
22	RASGRP4	1	-0.0715	80.5	-0.52	103	inactive
23	RASGRP4	2	0.674	95.3	-0.000209	106	inactive
24	RASGRP4	3	-0.762	66.7	-0.146	77.5	inactive
25	HNRNPF	1	0.0464	82.8	-0.57	108	inactive
26	HNRNPF	2	1.79	117	1.46	89.4	inactive
27	HNRNPF	3	1.1	104	1.5	78	inactive
28	UBE2J1	1	-0.328	75.4	-0.752	103	inactive
29	UBE2J1	2	0.146	84.8	-0.317	103	inactive
30	UBE2J1	3	0.24	86.7	0.049	95.6	inactive
31	ADCYAP1R1	1	1.24	107	1.5	80.3	inactive
32	ADCYAP1R1	2	-0.156	78.8	-0.628	104	inactive
33	ADCYAP1R1	3	-0.527	71.4	-0.456	90	inactive
34	TBX4	1	1.63	114	0.866	102	inactive
35	TBX4	2	0.88	99.4	0.601	94.8	inactive
36	TBX4	3	-0.752	66.9	-1.04	98.3	inactive
37	IPO5	1	-0.356	74.8	-0.145	86.8	inactive
38	IPO5	2	-0.593	70.1	-0.603	91.8	inactive
39	IPO5	3	-0.766	66.7	-0.953	95.7	inactive
